This note sets out measurements from publication PMC9756296.

Chains of the proteins cited; added tags and fusions are not shown.
UniProt Q03135: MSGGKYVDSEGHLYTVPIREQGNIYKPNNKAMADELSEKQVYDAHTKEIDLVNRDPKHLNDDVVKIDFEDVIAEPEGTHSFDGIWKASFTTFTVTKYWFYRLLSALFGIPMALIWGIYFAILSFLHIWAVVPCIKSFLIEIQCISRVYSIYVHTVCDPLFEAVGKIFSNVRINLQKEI
UniProt P09382: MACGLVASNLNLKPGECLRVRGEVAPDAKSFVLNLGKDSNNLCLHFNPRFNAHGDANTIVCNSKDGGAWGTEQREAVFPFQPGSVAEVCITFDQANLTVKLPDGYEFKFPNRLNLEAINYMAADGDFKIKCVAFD
UniProt P35222: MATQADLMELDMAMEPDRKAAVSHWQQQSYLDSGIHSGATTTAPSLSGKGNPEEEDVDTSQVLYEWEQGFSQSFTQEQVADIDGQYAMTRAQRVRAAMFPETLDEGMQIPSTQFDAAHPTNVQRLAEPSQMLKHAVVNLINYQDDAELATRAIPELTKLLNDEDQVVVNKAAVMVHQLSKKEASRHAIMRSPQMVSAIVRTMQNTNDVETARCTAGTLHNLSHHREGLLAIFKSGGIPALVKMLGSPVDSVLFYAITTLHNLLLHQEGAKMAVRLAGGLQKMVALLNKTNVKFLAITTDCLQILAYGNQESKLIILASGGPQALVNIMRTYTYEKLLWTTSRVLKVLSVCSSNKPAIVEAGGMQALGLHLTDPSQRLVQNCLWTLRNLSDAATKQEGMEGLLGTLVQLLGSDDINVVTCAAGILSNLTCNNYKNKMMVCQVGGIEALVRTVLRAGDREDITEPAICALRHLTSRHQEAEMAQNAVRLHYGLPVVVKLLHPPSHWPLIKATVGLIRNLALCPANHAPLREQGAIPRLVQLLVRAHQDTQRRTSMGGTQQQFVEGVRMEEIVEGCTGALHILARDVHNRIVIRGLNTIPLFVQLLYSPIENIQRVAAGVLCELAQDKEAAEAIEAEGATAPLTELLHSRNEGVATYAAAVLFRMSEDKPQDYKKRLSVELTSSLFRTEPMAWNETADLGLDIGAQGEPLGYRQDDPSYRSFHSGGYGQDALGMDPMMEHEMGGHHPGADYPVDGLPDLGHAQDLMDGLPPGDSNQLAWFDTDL

No constants are given. Whether binding was seen depends on the method and setting. In cells and extracts the contact can be indirect. Some results given as binding are weak or reduced against the parent protein; the word gives no strength.

This assay addresses caveolin-1 (human (endogenous in PMSCs)) (UniProt Q03135). Put plainly: co-IP; caveolin-1 immunoprecipitated from PMSC lipid raft isolates with 1 μg anti-caveolin-1 antibody (#7C8), 16 h at 4 °C; protein A/G-Sepharose beads 1 h at 4 °C; washed four times with PBS; Western blot for β-catenin, galectin-1 and caveolin-1; nonspecific mouse IgG as negative control.

Consider galectin-1 (from UniProt P09382 1-135), for which the binding entry was “binds”. With β-catenin (from UniProt P35222 1-781), the binding result was “binds”.
